From doi:10.1101/534339

Sequences of proteins named here, by UniProt entry; tags and fusion partners are left off.
UniProt Q10006: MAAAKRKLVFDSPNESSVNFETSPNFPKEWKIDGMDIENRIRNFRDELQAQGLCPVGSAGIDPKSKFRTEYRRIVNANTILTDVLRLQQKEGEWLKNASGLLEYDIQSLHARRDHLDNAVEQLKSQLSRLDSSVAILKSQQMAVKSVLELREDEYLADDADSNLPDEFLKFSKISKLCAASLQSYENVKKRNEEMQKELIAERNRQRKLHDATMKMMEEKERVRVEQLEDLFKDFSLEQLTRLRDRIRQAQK

Each molecule was assayed against GFP::HAL-2 fusion protein (C. elegans) (UniProt Q7YWU3) (assay: affinity purification with mass spectrometry).

Molecule | binding
HAL-3 (Homolog Alignment 3) (from UniProt Q10006 1-252) | binds
PGL-1 (protein, UniProt Q9TZQ3 1-730) MEANKREIVDFGGLRSYFFPNLAHYITKNDEELFNNTSQANKLAAFVLGASKDAPGDEDILEMILPNDANAAVIAAGMDVCLLLGDKFRPKFDAAAEKLSGLGHAHDLVSVIDDDKKLGMLARKAKLKKTEDAKILQALLKVIAIDDAAEKFVELTELVSQLDLDFDVYVLTKILGLISEETSDEVDIIRDNVVNAFDSCKPLLKQLMLDGPKSEPADPFISLLMDPLEESVGKVVNHIAQLFEEASKNEGDESLVLRSQLGYQLFFLIVRSLADGKREVSKKILSGIPTSVRAEVFPGLQRSVYKSAVFLGNHIIQVLLGSKKSFEDWDVVGVAKDLESAWKRRAIAELIKKFQVSILEQCFDKPVPLIPQSPLNNDAVIDNVNKALQFALWLTEFYGSENETEALGELRFLDSTSKNLLVDSFKKFVQGINSKTHVTRIVESLEKCCLSDTPSGRKSNVQPSTSQQQDSAYTKEEMTTVHNTYSVNTKAQVLNGLSDTNSSGLLVDSKDSLSLQEISCDEVDSSTLLSSSRNIGEGVTVKAVDPVPEKVNDAQQQQTVNEIEMASDANQDTSSSASPEVAPSFSTDGWDSPTKSVALPPGMQQIDEEETTVADKDSTPQPQARAETAWGSGDATPMPLPAPTNQYKVSGFGEAKVAKGFGQFAPTSSAYGGGGGRGGYGGGDRGGRGGYGGDRGGRGGYGGGDRGGRGGYGGDRGRGGYGGRGGRGGF | binds
CGH-1 (protein, UniProt Q95YF3 1-430) MSGAEQQQIVPANNGDENWKAGLNLPAKDRRFKTADVTDTKGVEFEDFCLGRDLLMGIFEKGWEKPSPIQEASIGVALTGQDILARAKNGTGKTGAYCIPVIEKIQPALKAIQAMVIVPTRELALQTSQICVELSKHIQLKVMVTTGGTDLRDDIMRLNGTVHLVIATPGRILDLMEKGVAKMEHCKTLVLDEADKLLSQDFQGILDRLINFLPKERQVMLYSATFPNTVTSFMQKHMHKPYEINLMEELTLLGVTQYYAFVQEKQKVHCLNTLFRKLQINQSIIFCNSTQRVELLAKKITEIGYSCYYIHSKMAQNHRNRVFHDFRQGNCRNLVCSDLLTRGIDIQAVNVVINFDFPRNAETYLHRIGRSGRFGHLGVAINLITYEDRHTLRRIEQELRTRIEPIPKTVDPKLYVADQQLVDAADETTA | binds
OMA-1 (protein, UniProt G5EC86 1-407) MNVNGENNEKIDEHHLESSLAGVPTLPVSPLDHAKDLSQTNPNAQIGDLVTQTANLIAIKKQLLEDIAFNQHIQSMQVRAIQSFPQNNQVAPPFQQFDPRRRGLARMQKPESYKTVICQAWLESKTCSFADNCRFAHGEEELRPTFVEPLQNNKYKTKLCDKYTTTGLCPYGKRCLFIHPDHGPNAYIRADKLLEVSQRHALADIRDQMEQHIMTNGRIAAPPLSAIQHPLEMFARPSTPDEPAAKLPLGPTPVSTRGPRYELPTKELHDAEGAMTYPPSRWPLDPSMFALDAWNMAHRPASPLDSMVLGSAPNAGSFGMLGKQNTPGGVSGYSSAGSTPSQDLSSSSLNAASAAAAAAYFANSAVAQSLLMKSVATDPMMSCNGPFSPMPGFDQLAENMTKHLNLW | binds

These are yes or no findings as the source states them, for the method shown. Binding seen in cells or lysates may run through a third protein. A yes stands for co-enrichment or nearness to the bait. Other partners may have been found.
